Results deposited as PubChem BioAssay AID1159578 (Peter MacCallum Cancer Centre, 2015)
The whole screen tested about 18,000 reagents; shown is a random part of them. About 1,030 of them (5.7%) count as active. 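Inactive calls also include pools with fewer than 3300 nuclei, whose migration was not assessed.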 The raw values are shown without normalisation. Not all columns of the deposit are shown.

Screen: 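siRNA pools altering how lymphatic endothelial cells close a scratch wound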 (primary screen)
Cells: human lymphatic endothelial cells
Knock-down reagent: siRNA pool against human genes, 40 nM
Timing: 48 h after transfection
Read-out: 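High-content imaging of dye-stained cells in a scratch assay measures filled wound area and nuclei per well; duplicate means given as ratio to mock and robust z-score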
Reading the numbers: migration robust z-score: higher = faster migration into the scratch; nuclei per well: higher = more cells in the well
Active means: 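Migration changed when robust z exceeds 2 or falls below -2 and mean nuclei number is at least 3300; otherwise not called changed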
Calls: active = migration changed; inactive = no migration change, or too few cells

What is on record for HEPN1?
migration robust z-score: -0.85; nuclei per well, duplicate mean: 5832; call: inactive

Which result is listed for MIR1915HG?
migration robust z-score: 1.02; nuclei per well, duplicate mean: 6242; call: inactive

Which result is listed for ESCO2?
migration robust z-score: -1.37; nuclei per well, duplicate mean: 5398; call: inactive

How did the screen score INPP5E?
migration robust z-score: -0.8; nuclei per well, duplicate mean: 5056; call: inactive

For POU2AF1, what was measured?
migration robust z-score: 1.15; nuclei per well, duplicate mean: 5306; call: inactive

With CLSTN3, what does the deposit list?
migration robust z-score: -0.72; nuclei per well, duplicate mean: 5366; call: inactive

Which result is listed for LAS1L?
migration robust z-score: -0.48; nuclei per well, duplicate mean: 5320; call: inactive

What did the screen give for GOLM2?
migration robust z-score: -1.54; nuclei per well, duplicate mean: 4434; call: inactive

Sorted by “nuclei per well, duplicate mean” (highest first): 2 of the entries above.
ESCO2 → migration robust z-score: -1.37; nuclei per well, duplicate mean: 5398; call: inactive
INPP5E → migration robust z-score: -0.8; nuclei per well, duplicate mean: 5056; call: inactive

Next entries:
With TCFL5, what does the deposit list?
migration robust z-score: -0.6; nuclei per well, duplicate mean: 4214; call: inactive

How did the screen score HIVEP2?
migration robust z-score: -0.11; nuclei per well, duplicate mean: 4659; call: inactive

What did the screen give for CDC123?
migration robust z-score: -0.7; nuclei per well, duplicate mean: 5146; call: inactive

With G6PC2, what was measured?
migration robust z-score: 0.54; nuclei per well, duplicate mean: 6118; call: inactive

For STARD3, what does the deposit list?
migration robust z-score: 0.54; nuclei per well, duplicate mean: 6145; call: inactive

With ANXA3, what was measured?
migration robust z-score: 0.36; nuclei per well, duplicate mean: 6142; call: inactive

For WASHC5, how do the results read?
migration robust z-score: -0.31; nuclei per well, duplicate mean: 6887; call: inactive

Which result is listed for NIPA2?
migration robust z-score: -0.93; nuclei per well, duplicate mean: 4942; call: inactive

With TAMALIN, how do the results read?
migration robust z-score: 0.77; nuclei per well, duplicate mean: 6022; call: inactive

For SYNJ2BP, what does the deposit list?
migration robust z-score: -1.41; nuclei per well, duplicate mean: 4158; call: inactive

For PTPRO, how do the results read?
migration robust z-score: -0.2; nuclei per well, duplicate mean: 6638; call: inactive

How did the screen score ZCCHC2?
migration robust z-score: 0.71; nuclei per well, duplicate mean: 5695; call: inactive

For NUMBL, what was measured?
migration robust z-score: 0.34; nuclei per well, duplicate mean: 5866; call: inactive
